{"source": "PubChem BioAssay AID540276", "about": "(National Center for Advancing Translational Sciences (NCATS), 2011)", "note": "The whole screen tested about 300,000 compounds, of which about 5,400 (1.8%) were called active. The shares of active, inactive and inconclusive entries below differ from those in the screen. Calls come from the whole dose curve; tested in HEK293 cells. Potencies beside an inconclusive call are fits to weak or partial responses and may not hold up. % is set by controls: 0 for no effect and ±100 for the full control effect; potency is the fitted concentration of half-maximal effect."}
{"assay": "qHTS for inhibitors of binding or entry into cells for Marburg Virus", "conditions": "Marburg virus pseudotyped entry inhibition, cell reporter; activity change, negative = inhibition: at 37.8 µM (top of the series) unless noted"}
{"compound": "CCN1CCN(S(=O)(=O)c2cc(OCC(=O)NC3CCCCC3)c(C)cc2Cl)CC1", "Potency": "inconclusive: 20.6 µM [inhibitor, partial curve, poor fit]"}
{"compound": "Clc1cccc(C2NCCc3[nH]cnc32)c1", "note": "(stereo unspecified)", "Potency": "inconclusive: 0.562 µM [activator, full curve, poor fit]"}
{"compound": "CC(C(=O)Nc1ncccn1)(c1ccccc1)c1ccccc1", "Potency": "inconclusive: 6.31 µM [activator, single point]"}
{"compound": "CCOc1cccc(NC(=O)CSc2nncn2N)c1", "Potency": "inconclusive: 2.91 µM [activator, full curve, poor fit]"}
{"compound": "CC(C)(C)C(=O)NC(=S)NCCc1ccccc1", "Potency": "inconclusive: 39.8 µM [inhibitor, partial curve, poor fit]"}
{"compound": "CN1C(=O)CC(C(=O)O)SC1=Nc1cccc(C(F)(F)F)c1", "note": "(stereo unspecified)", "Potency": "inconclusive: 0.146 µM [activator, full curve, poor fit]"}
{"compound": "Cc1ccc(S(=O)(=O)N2CCSCCSCCSCCSCC2)cc1", "Potency": "inconclusive: 25.1 µM [inhibitor, single point]"}
{"compound": "O=C(c1cc(COc2ccc(F)cc2Cl)on1)N1CCSCC1", "Potency": "inconclusive: 2.24 µM [activator, partial curve, poor fit]"}
{"compound": "c1ccc(Nc2nc(-c3ccncc3)cs2)cc1", "Potency": "inconclusive: 35.5 µM [inhibitor, single point]"}
{"compound": "Cc1ccc(NC(=S)N2C3CCCC2CC(NC(=O)C2CC2)C3)cc1C", "note": "(stereo unspecified)", "Potency": "inconclusive: 35.5 µM [inhibitor, partial curve, poor fit]"}
{"compound": "O=C(C1=C(O)C(=O)N(c2nccs2)C1c1ccccc1)c1cc2ccccc2o1", "note": "(stereo unspecified)", "Potency": "inconclusive: 0.562 µM [activator, full curve, poor fit]"}
{"compound": "CS(=O)(=O)Cc1ccc(C(=O)NCC2(N3CCCCC3)CCCCC2)cc1", "Potency": "inactive"}
{"compound": "CSc1ccc(-c2nc(CSCC(=O)N3CCOCC3)c(C)o2)cc1", "Potency": "inactive"}
{"compound": "Cc1ccc(-n2c(Cc3cccn3C)nnc2SCC(=O)N2CCc3ccccc32)cc1", "Potency": "inconclusive: 20.6 µM [inhibitor, single point]"}
{"compound": "O=C(Nc1ccccn1)C1CCN(S(=O)(=O)c2ccc3c(c2)OCCCO3)CC1", "Potency": "inconclusive: 6.31 µM [activator, single point]"}
{"compound": "N/C(=N\\OC(=O)c1ccc(F)cc1)c1nonc1N", "Potency": "inconclusive: 0.631 µM [inhibitor, partial curve, poor fit]"}
{"compound": "COc1ccc(-n2cnnc2SCC(=O)NC2CCCc3ccccc32)cc1", "note": "(stereo unspecified)", "Potency": "inconclusive: 8.91 µM [inhibitor, partial curve, poor fit]"}
{"compound": "C=CCn1c(NC(=O)c2ccco2)nc2ccccc21", "Potency": "inconclusive: 0.562 µM [inhibitor, full curve, poor fit]"}
{"compound": "O=C(CSc1nc(-c2ccncc2)nn1CC(=O)N1CCCCC1)NC1CCCC1", "Potency": "inactive"}
{"compound": "Fc1cc(F)c(NC(=S)N2CCOCC2)c(F)c1", "Potency": "inactive"}
{"compound": "COc1ccc(OCCCC(=O)Nc2cccc([N+](=O)[O-])c2C)cc1", "Potency": "inactive"}
{"compound": "Clc1ccc(CNc2nnnn2-c2ccccc2)c(Cl)c1", "activity change, negative = inhibition": "inconclusive: 6.94% [activator]"}
{"compound": "CCCCN(C)CCN1C(=O)C2C(C(=O)Nc3ccc(Cl)cc3)C3C=CC2(O3)C1C(=O)NC1CCCCC1", "note": "(stereo unspecified)", "Potency": "inconclusive: 10 µM [inhibitor, partial curve, poor fit]"}
{"compound": "COc1ccc(N2C(=O)CC(Sc3n[nH]c(-c4cccc(C)c4)n3)C2=O)cc1", "note": "(stereo unspecified)", "Potency": "inconclusive: 17.8 µM [inhibitor, single point]"}
{"compound": "COC(=O)c1sc(-c2ccc(Cl)cc2)cc1NC(=O)c1ccccc1C(=O)O", "Potency": "inactive"}
{"compound": "COC(=O)c1c(NC(=O)CC2Nc3cc(C)c(C)cc3NC2=O)sc(C)c1C", "note": "(stereo unspecified)", "Potency": "inactive"}
{"compound": "Cc1cccnc1NC(=O)Nc1cccc(Cl)c1", "Potency": "inconclusive: 5.01 µM [activator, partial curve, poor fit]"}
{"compound": "Cc1ccc(CN(Cc2ccco2)C(=O)COc2ccc(Cl)cc2)o1", "Potency": "inactive"}
{"compound": "CCOC(=O)C(=NC(C)CC)NNc1ccc(Br)cc1", "note": "(stereo unspecified)", "Potency": "inconclusive: 22.4 µM [inhibitor, single point]"}
{"compound": "COCCNC(=S)NNC(=O)c1ccco1", "Potency": "inactive"}
{"compound": "O=c1[nH]ncc(N/N=C/c2ccccc2)c1Cl", "Potency": "inactive"}
{"compound": "COc1ccc(-c2n[nH]c(=S)n2-c2ccc3c(c2)OCCO3)cc1OC", "Potency": "inactive"}
{"compound": "COc1ccc(OCC(O)CN2CCN(c3ccc(OC)cc3)CC2)cc1", "note": "(stereo unspecified)", "Potency": "inconclusive: 6.31 µM [inhibitor, single point]"}
{"compound": "COC(=O)c1cc(=O)n(Cc2ccc3c(c2)OCO3)c(=Nc2ccc(F)cc2)s1", "Potency": "inactive"}
{"compound": "FC(F)(F)c1cccc(NC(=S)NC(c2ccccc2)c2ccccc2)c1", "Potency": "inconclusive: 7.94 µM [inhibitor, partial curve, poor fit]"}
{"compound": "Fc1ccc(/C=N/Nc2ncnc3nc[nH]c23)cc1F", "Potency": "inconclusive: 3.26 µM [activator, single point]"}
{"compound": "COc1cccc(/C=N/NC(=S)NC2CC3CC2C2C=CCC32)c1O", "note": "(stereo unspecified)", "Potency": "inconclusive: 2.82 µM [inhibitor, partial curve, poor fit]"}
{"compound": "CCC(C)c1ccc(NC(=O)NCc2cccnc2)cc1", "note": "(stereo unspecified)", "Potency": "inconclusive: 5.01 µM [activator, full curve, poor fit]"}
{"compound": "O=C(N/N=C1/CCSC1)c1cccc([N+](=O)[O-])c1", "Potency": "inactive"}
{"compound": "O=C(CN1C(=O)COc2ccc(S(=O)(=O)N3CCCCC3)cc21)NCc1ccc(Cl)cc1", "Potency": "inconclusive: 10 µM [inhibitor, partial curve, poor fit]"}
{"compound": "CCN(CC(=O)N1CCc2ccccc2C1)S(=O)(=O)c1ccc2ccccc2c1", "Potency": "inactive"}
{"compound": "CN(C(=O)c1cc2c(s1)-c1ccc(Cl)cc1SC2)c1cccc(C(F)(F)F)c1", "Potency": "inactive"}
{"compound": "Cc1ccc(S(=O)(=O)N(C[C@@H](O)CN(C)C)c2ccccc2)cc1", "Potency": "inconclusive: 3.16 µM [activator, single point]"}
{"compound": "O=C(N/N=C/c1c(O)ccc2ccccc12)c1ccc[n+](CCO)c1", "Potency": "inactive"}
{"compound": "Cc1cccc(NC(=O)c2nc[nH]c2C(=O)Nc2ccccc2[N+](=O)[O-])c1", "Potency": "inactive"}
{"compound": "COc1ccc(-n2nnnc2C2CCN(S(=O)(=O)c3ccc(C(C)(C)C)cc3)CC2)cc1", "Potency": "inactive"}
{"compound": "CCC(CC)C(=O)Nc1nc2c(s1)CC(C)CC2", "note": "(stereo unspecified)", "Potency": "inactive"}
{"compound": "COc1ccc(CCNC(=O)C(=O)NCC2CCCN2S(=O)(=O)c2cc(C)ccc2C)cc1", "note": "(stereo unspecified)", "Potency": "inconclusive: 0.0891 µM [inhibitor, full curve, poor fit]"}
{"compound": "CCOC(=O)c1cc(-c2ccccc2)sc1NC(=O)C(C)Sc1nnnn1C", "note": "(stereo unspecified)", "Potency": "inconclusive: 13 µM [inhibitor, partial curve, poor fit]"}
{"compound": "Cc1ccc(C(CC(=O)O)C2CCOC(C)(C)C2)cc1", "note": "(stereo unspecified)", "Potency": "inconclusive: 0.411 µM [inhibitor, partial curve, poor fit]"}
{"compound": "COc1ccc(C(=O)Nc2nnc(SCC(=O)NCc3ccco3)s2)cc1OC", "Potency": "inactive"}
{"compound": "CSc1ccccc1NC(=S)Nc1ccc(S(N)(=O)=O)cc1", "Potency": "inactive"}
{"compound": "Cc1ccc(N2C(=O)CC(SCC(=O)Nc3ccc(S(N)(=O)=O)cc3)C2=O)cc1", "note": "(stereo unspecified)", "Potency": "inactive"}
{"compound": "Cc1ccc2nc(SCC(=O)Nc3cccc(F)c3)nc(=O)n2c1", "Potency": "inconclusive: 14.1 µM [inhibitor, partial curve, poor fit]"}
{"compound": "CCOc1ccc(-n2c(-c3ccco3)nc3c(cnn3-c3ccc(C)cc3)c2=O)cc1", "Potency": "inconclusive: 5.62 µM [activator, single point]"}
{"compound": "O=C(Nc1ccccc1N1CCN(C(=O)c2ccc(Cl)cc2)CC1)c1cccc(F)c1", "Potency": "inconclusive: 17.8 µM [inhibitor, partial curve, poor fit]"}
{"compound": "COc1ccc(C(=O)COC(=O)COc2cc(C)cc(C)c2)cc1", "Potency": "inactive"}
{"compound": "Cc1ccc(CNC2=NCCS2)cc1", "Potency": "inconclusive: 6.31 µM [activator, single point]"}
{"compound": "COc1ccccc1NC(=O)C1=C(C)Nc2nc(SCc3ccccc3F)nn2C1c1cccs1", "note": "(stereo unspecified)", "Potency": "inconclusive: 0.562 µM [activator, full curve, poor fit]"}
{"compound": "CN1C(=O)CC(N2CCN(CCN=CC3=C(O)CC(C)(C)CC3=O)CC2)C1=O", "note": "(stereo unspecified)", "Potency": "inactive"}
{"compound": "CCOc1ccc(S(=O)(=O)Nc2cc(OC)ccc2OC)cc1", "Potency": "inconclusive: 0.112 µM [inhibitor, full curve, poor fit]"}
{"compound": "COc1ccc(C)cc1NC(=O)CN1C(=O)c2cccc3cccc1c23", "Potency": "inconclusive: 23.1 µM [inhibitor, partial curve, poor fit]"}
{"compound": "CCCOc1ccc(S(=O)(=O)NCCN2CCOCC2)c2ccccc12", "Potency": "inconclusive: 5.62 µM [activator, single point]"}
{"compound": "COc1ccccc1N1CCN(CCCCNS(=O)(=O)c2cccc3c(N(C)C)cccc23)CC1", "Potency": "active: 7.08 µM"}
{"compound": "O=c1[nH]cnc(O)c1C1C=CC=CC=C1", "activity change, negative = inhibition": "inconclusive: 9.97% [activator]"}
{"compound": "NCCNC(=O)c1ncsc1-c1cccc(F)c1", "Potency": "inconclusive: 0.199 µM [inhibitor, full curve, poor fit]"}
{"compound": "COC(=O)c1cc(NC(=O)c2nn(C)c3c2COc2ccccc2-3)cc(C(=O)OC)c1", "Potency": "inactive"}
{"compound": "Cn1c(NC(=O)c2cccc(Cn3cc(Cl)cn3)c2)nc2ccccc21", "Potency": "inactive"}
{"compound": "CC(C)(C)C(=O)COC(=O)c1ccc(N)c([N+](=O)[O-])c1", "Potency": "inactive"}
{"compound": "Cc1[nH]c2ccccc2c1C(=O)COC(=O)c1c(-c2ccccc2Cl)noc1C", "Potency": "inconclusive: 35.5 µM [inhibitor, single point]"}
{"compound": "Fc1ccccc1CN(CCN1CCOCC1)C(=S)Nc1ccccc1Cl", "Potency": "inconclusive: 0.562 µM [activator, full curve, poor fit]"}
